Reference: PMC7665171
Results are given in words; binding and its absence hold for the method and conditions named. For some assays here: In cells and extracts the contact can be indirect. Some binding calls cover weakened binding; strength is not graded here. Values belong to the substance of their own block, whether it stands above or below them.

Columns and labels:
MCL-1-3xFlag = MCL-1-3xFlag (UniProt Q07820); assay: co-IP; HEK293T cells co-transfected for 24 h, then treated with UMI-77 (10 µM, 4 h) or oxygen-glucose deprivation (5 h); lysis in RIPA buffer (20 mM Tris-HCl, 150 mM NaCl, 0.5% NP-40, 1 mM EDTA); anti-Flag or anti-HA beads overnight at 4 °C; western blot
MCL-1-3xFlag F318A = MCL-1-3xFlag F318A (UniProt Q07820); assay: as above
MCL-1-3xFlag F318A/V321A = MCL-1-3xFlag F318A/V321A (UniProt Q07820); assay: as above
MCL-1-3xFlag I264A = MCL-1-3xFlag I264A (UniProt Q07820); assay: as above
MCL-1-3xFlag V321A = MCL-1-3xFlag V321A (UniProt Q07820); assay: as above
MCL-1-3xFlag W261A = MCL-1-3xFlag W261A (UniProt Q07820); assay: as above
MCL-1-3xFlag W261A/I264A = MCL-1-3xFlag W261A/I264A (UniProt Q07820); assay: as above
[1] = molecular target: MCL-1-3xFlag ΔLIR^261–264 (UniProt Q07820); assay: as above
[2] = molecular target: endogenous MCL-1 (human (endogenous in HEK293T and HeLa)) (UniProt Q07820); assay: proximity ligation; Duolink PLA with MCL-1 and LC3A primary antibodies in fixed HEK293T cells, DMSO or UMI-77 (10 µM, 4 h)
[3] = molecular target: endogenous MCL-1 (human (endogenous in HEK293T and HeLa)) (UniProt Q07820); assay: proximity ligation; PLA with MCL-1 and LC3A primary antibodies in fixed HeLa WT and quadruple KO (NBR1, TAX1BP1, p62, NDP52) cells, UMI-77 (5 µM) for the indicated times
GST-LC3A = GST-LC3A (UniProt Q9H492); assay: pull-down; GST-LC3A incubated with purified MCL-1 (1-325) for 2 h at 4 °C; GST beads washed four times with lysis buffer; western blot; both purified

- binding (MCL-1-3xFlag): binds
- binding (MCL-1-3xFlag F318A): binds
- binding (MCL-1-3xFlag F318A/V321A): binds
- binding (MCL-1-3xFlag I264A): binds
- binding (MCL-1-3xFlag V321A): binds
- binding (MCL-1-3xFlag W261A): binds
- binding (MCL-1-3xFlag W261A/I264A): binds
- binding [1]: binds
Substance: HA-LC3A (from UniProt Q9H492 1-121)

- binding [2]: binds
- binding [3]: binds
Substance: endogenous LC3A (from UniProt Q9H492 1-121)

- binding (GST-LC3A): binds
Substance: truncated MCL-1 (1-325aa) (from UniProt Q07820 1-325) (domain or fragment)
